The values that follow come from US20180037649A1 (OSAKA UNIVERSITY, published 2018).

What all share (assay): co-IP with anti-FLAG antibody from X293T/Dkk1-FLAG cell lysate, immunoblot with anti-HA antibody
In general terms: A western blot detects proteins with antibodies after separation by electrophoresis.

The target in test [1] is deletion mutant CKAP4-HA ΔC3.
Test [2] concerns the target deletion mutant CKAP4-HA ΔC2.
The target of test [3] is deletion mutant CKAP4-HA ΔC1.

Results are given in words; binding and its absence hold for the method and conditions named. In cells and extracts the contact can be indirect. For part of these data: A result given as binding can be weak or reduced; the word gives no strength. Tags and fused reporters may be left off the sequences shown.

B1: Dkk1-FLAG (wild-type human Dkk1 tagged with FLAG at the C-terminal) (ligand, UniProt O94907 32-266, looked up)
chain: TLNSVLNSNAIKNLPPPLGGAAGHPGSAVSAAPGILYPGGNKYQTIDNYQPYPCAEDEECGTDEYCASPTRGGDAGVQICLACRKRRKRCMRHAMCCPGNYCKNGICVSSDQNHFRGEIEETITESFGNDHSTLDGYSRRTTLSSKMYHTKGQEGSVCLRSSDCASGLCCARHFWSKICKPVLKEGQVCTKHRRKGSHGLEIFQRCYCGEGLSCRIQKDHHQASNSSRLHTCQRH
notes: Expressed in MDCK or X293T cells; pulled down from cell lysates with an anti-FLAG antibody; also called WT-FLAG; wild-type Dkk1-FLAG (WT); not shown: FLAG tag at the C-terminal
For B1, the binding result is “no binding” in test [1], “no binding” in test [2] and “binds” in test [3].
